Source: PubChem BioAssay AID493014 (National Center for Advancing Translational Sciences (NCATS), 2011)
The other results are listed elsewhere or left out. Further columns of the screen follow, without active or inactive calls. The list favours compounds with an active or inconclusive main result. The note in brackets gives the kind of curve behind each potency; many fits are weak.

Experiment: qHTS Assay to Find Inhibitors of Chronic Active B-Cell Receptor Signaling
Conditions: ABC-DLBCL IkBa-CBG/CBR reporter, luminescence ratio (green luciferase fused to IkBa over red control in TMD8 lymphoma cells), 4 h
In short: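 Concentration-response series (up to 46 uM) were applied to TMD8 dual-reporter cells for 4 h at 37C with doxycycline. Green/red ratio, after filter-overlap correction, defined %Activity; red signal alone was normalised to basal cells and zero luminescence.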

[1] = measured here: CBR red luminescence, cell number
[2] = measured here: IkBa-CBG green luminescence

SMILES	AC50 [1]	AC50 [2]
COc1cc(CNC2CCCCCC2)cc(OC)c1	29.1 µM [rising, single point]	
Cc1ccc(S(=O)(=O)N2CCCCC2)cc1NC(=O)COC(=O)c1cccn1C	3.26 µM [falling, single point]	
Cc1nc(C)c(C(=O)C2=C(O)C(=O)N(CCN(C)C)C2c2ccccc2)s1 (stereo not drawn)	0.00461 µM [falling, full curve, poor fit]	
CC(=O)N1CCc2cc(C(=O)CN3CCN(c4cccc(Cl)c4)CC3)ccc21	5.01 µM [rising, partial curve, poor fit]	
Oc1ccc(Nc2nnc(-c3ccc(O)cc3)c3ccccc23)cc1		5.01 µM [falling, partial curve, poor fit]
COc1ccccc1NC(=O)CSC1=Nc2ccccc2C2=NC(CC(=O)NCc3cccs3)C(=O)N12 (stereo not drawn)	17.8 µM [falling, single point]	
Cc1ccccc1NC(=S)N=Nc1c(O)n(C)c2ccc(S(=O)(=O)N3CCOCC3)cc12		3.66 µM [falling, full curve]
CCOC(=O)COc1cc(OCC(=O)OCC)c2c3c(c(=O)oc2c1)CCCC3	3.16 µM [falling, full curve, poor fit]	
O=C(Nc1ccc(NC(=O)c2cccs2)c(Cl)c1)c1ccco1	22.4 µM [falling, single point]	
CCNC(=S)NNC(=O)c1ccc(OC(F)F)cc1	29.1 µM [falling, single point]	
CCCCN(C(=O)CNC(=O)c1cccs1)C(C(=O)NC1CCCC1)c1ccncc1 (stereo not drawn)	22.4 µM [falling, single point]	
COc1ccc(C)cc1NC(=O)c1cc2ccccc2cc1OCC(=O)NCc1ccco1	2.31 µM [falling, partial curve]	
COc1ccc(CC(=O)N/N=C/c2ccc(-c3cccc(C(=O)O)c3)o2)cc1OC	35.5 µM [falling, single point]	
Cc1cccc2c(=O)n3c(nc12)CCCCC3	29.1 µM [rising, single point]	
CCOc1ccc(OCC)c(NC(=O)Nc2ccc3c(c2)N(C)C(=O)CS3)c1	23.1 µM [falling, single point]	
NC(=O)CSc1nc2cc(Cl)ccc2c(=O)n1C1CCCCC1	25.1 µM [rising, single point]	
CCCc1ccc(/C=C2\C(=O)c3ccccc3C(O)=C2C(=O)OCC)cc1		29.1 µM [falling, single point]
C=CCNC(=S)NN=C1CCCCCCC1	5.01 µM [falling, partial curve]	5.01 µM [falling, full curve]
Cc1cc(NC(=O)c2cc(-c3cccs3)nc3ccccc23)no1	5.8 µM [falling, partial curve, poor fit]	
Cc1ccc(N=C2NC(=O)/C(=C/c3cccn3C)S2)cc1C	12.6 µM [falling, partial curve, poor fit]	
Cc1ccc(Cn2ccc(NC(=O)c3nn(C)cc3[N+](=O)[O-])n2)cc1	9.2 µM [falling, partial curve, poor fit]	

Gathered by group, the compounds so far with an aryl methoxy group.
SMILES	AC50 [1]	AC50 [2]
COc1cc(CNC2CCCCCC2)cc(OC)c1	29.1 µM [rising, single point]	
COc1ccccc1NC(=O)CSC1=Nc2ccccc2C2=NC(CC(=O)NCc3cccs3)C(=O)N12 (stereo not drawn)	17.8 µM [falling, single point]	
COc1ccc(C)cc1NC(=O)c1cc2ccccc2cc1OCC(=O)NCc1ccco1	2.31 µM [falling, partial curve]	
COc1ccc(CC(=O)N/N=C/c2ccc(-c3cccc(C(=O)O)c3)o2)cc1OC	35.5 µM [falling, single point]	

(cont.)

SMILES	AC50 [1]	AC50 [2]
CSc1ccc(/C=C(/Sc2nnc(-c3ccccc3)o2)C(=O)O)cc1	35.5 µM [rising, single point]	
c1ccc(Cc2nnc3sc(-c4cccnc4)nn23)cc1	2.31 µM [rising, single point]	
COc1ccccc1NC(=O)C(=O)NCCC1CCCCN1S(=O)(=O)c1cccs1 (stereo not drawn)	0.517 µM [falling, full curve]	
Cc1c(CC(=O)NCCCC(=O)O)c(=O)oc2cc3occ(-c4ccccc4)c3cc12	22.4 µM [rising, single point]	
O=C(CCCN1C(=O)c2ccccc2C1=O)NCc1cccnc1	10.3 µM [rising, partial curve, poor fit]	
C=C(NS(=O)(=O)c1ccc(C)cc1)C(=O)OC	2.06 µM [rising, full curve, poor fit]	
Cc1cc(=O)[nH]c2ccc(Cl)cc12	2.91 µM [falling, partial curve]	
COc1cc(C(=O)N/N=C/c2ccc(OC(=O)c3cccc(C)c3)cc2)ccc1O	14.1 µM [falling, partial curve]	
O=C(CCl)N(c1ccccc1)C1CCCCC1	8.91 µM [falling, partial curve]	35.5 µM [rising, partial curve, poor fit]
C=CCn1c(SCC(=O)Nc2nc3ccccc3s2)nc(O)c(CC)c1=O	11.2 µM [falling, partial curve, poor fit]	
COc1ccc(OC)c(NC(=O)C2CC(C)=C(C)CC2C(=O)O)c1 (stereo not drawn)	6.31 µM [falling, single point]	
CCN(CC)CCCNC(=O)CN1N=C(c2ccc(OC)cc2)CCC1=O	15.8 µM [rising, partial curve, poor fit]	
CCOC(=O)C1CCN(C(=O)Nc2ccc(OC(F)(F)F)cc2)CC1	0.501 µM [falling, full curve, poor fit]	
Cc1cc(=O)oc2cc(OCC(=O)OCC(=O)Nc3ccc(C(N)=O)cc3)ccc12	14.1 µM [rising, partial curve, poor fit]	
O=C(CSc1nnc(CNC(=O)c2c(F)cccc2Cl)o1)NCc1ccc(F)cc1	2.24 µM [rising, partial curve, poor fit]	
Cc1cc(N/N=C/c2ccc(O)c(C)c2O)nc(-c2ccccc2O)n1	2.31 µM [falling, partial curve, poor fit]	0.206 µM [rising, full curve, poor fit]
CC1=NNC(=O)C1CCC(=O)N/N=C\c1cccc(Cl)c1 (stereo not drawn)	11.2 µM [falling, partial curve, poor fit]	
COc1cccc(CC2(CO)CCCN(Cc3cn(C)c4ccccc34)C2)c1 (stereo not drawn)	35.5 µM [falling, single point]	
CCN(CC)C(=O)CSc1nc(-c2ccccc2)ccc1C#N	20 µM [rising, single point]	
Cc1ccc(-c2nnc(SCC(=O)N3CCN(c4ccccc4)CC3)o2)cc1	5.62 µM [rising, single point]	
Nn1c(COc2ccccc2)nnc1SCC(=O)O	0.651 µM [falling, partial curve, poor fit]	

SMILES	AC50 [1]	AC50 [2]
CCNC(=O)COc1cc(C)c(Cl)c(C)c1	29.1 µM [falling, single point]	
CCc1cccc2c(C(=O)C(NC(C)CC)c3ccccc3)c[nH]c12 (stereo not drawn)	35.5 µM [falling, single point]	
COC(=O)c1cnn(-c2ccc(C(=O)Nc3cc(OC)c(OC)c(OC)c3)cc2)c1N	11.2 µM [falling, partial curve, poor fit]	
CCOC(=O)c1cc(-c2ccc(OC)cc2)n(CCC(=O)Nc2nc3ccc(OCC)cc3s2)c1C	3.98 µM [rising, full curve]	
COc1cc(-c2nnc(-c3ccccc3)o2)cc(OC)c1OC	32.6 µM [falling, single point]	
COc1ccc(-n2nnnc2SCC(=O)NC2CC2)cc1	29.1 µM [rising, single point]	
COC(=O)N/N=C/c1cc(C)n(-c2ccc(F)cc2)c1C	20 µM [rising, single point]	
CC(C)c1ccc(C(=O)NC(=S)Nc2ccc3[nH]c(=O)[nH]c3c2)cc1	35.5 µM [rising, partial curve, poor fit]	
COc1ccc(Cl)cc1NS(=O)(=O)c1cccc(C(=O)NCC(c2ccco2)N2CCCC2)c1 (stereo not drawn)	29.1 µM [falling, single point]	
COc1ccc2nc(-c3ccccc3)[nH]c2c1	0.366 µM [falling, full curve, poor fit]	
Cc1nc(N2CCOCC2)c2c(C)c(C(=O)Nc3ccc(C(F)(F)F)cc3)sc2n1	10 µM [rising, partial curve]	
O=C(Nc1cc(Br)ccc1O)c1cnn2c(C(F)F)cc(C3CC3)nc12	6.31 µM [falling, single point]	
Cc1ccc2cc(CN(Cc3ccc4c(c3)OCO4)Cc3nnnn3Cc3ccco3)c(=O)[nH]c2c1C	29.1 µM [falling, single point]	
Cc1ccc(-n2c(SCC(=O)NCC3CCCO3)nc3n[nH]c(C)c3c2=N)cc1Cl (stereo not drawn)	14.6 µM [rising, partial curve, poor fit]	20.6 µM [falling, single point]
Cc1ccc(C2CCN(C(=O)Nc3ccc(F)cc3)C2)cc1 (stereo not drawn)	2.51 µM [falling, partial curve, poor fit]	
CC(=O)CCCCn1c(=O)c2c(ncn2C)n(C)c1=O	6.51 µM [falling, single point]	
COc1ccc(NC(=O)c2cc3ccccc3o2)cc1	11.2 µM [falling, partial curve]	
C=CCNC(=O)/C(C#N)=C/c1ccc(OS(=O)(=O)c2ccc(C)cc2)c(OC)c1		29.1 µM [falling, single point]
Cc1cc(C(F)(F)F)c(C#N)c(SCC(=O)NC(C)(C)C)n1	0.0731 µM [falling, full curve, poor fit]	
Cc1cc(NC(=O)CCC(=O)N(c2ccc(F)cc2)C(C(=O)NC2CCCC2)c2ccncc2)no1 (stereo not drawn)	35.5 µM [rising, single point]	
Cc1ccc(O)c(C(=O)c2cnc3c(c2)COc2ccccc2-3)c1	32.6 µM [falling, single point]	23.1 µM [rising, single point]
